This is one part of the list.

Sequences of proteins named here, by UniProt entry; tags and fusion partners are left off.
UniProt Q0JBA9, entry or part of it: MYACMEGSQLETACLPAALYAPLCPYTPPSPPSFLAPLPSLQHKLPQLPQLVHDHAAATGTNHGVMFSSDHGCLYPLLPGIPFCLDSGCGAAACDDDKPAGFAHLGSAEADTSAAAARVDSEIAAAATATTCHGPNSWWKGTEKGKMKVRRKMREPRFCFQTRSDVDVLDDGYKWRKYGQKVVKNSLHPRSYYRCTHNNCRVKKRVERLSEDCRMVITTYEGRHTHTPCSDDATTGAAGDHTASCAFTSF

The source of these data is paper PMC7819943, “Rice protein-binding microarrays: a tool to detect cis-acting elements near promoter regions in rice”.

For the assay, the target named is OsWRKY34 (Oryza sativa, UniProt Q0JBA9 1-250). The assay is described as follows: protein-binding microarray (RPBM); PBS, 2% BSA, 51.3 ng/ul salmon testes DNA, 50 uM zinc acetate, 200 nM TF, 25 C, 1 h; high values mean tight binding. Particulars: protein: recombinant; tags: N-terminal polyhistidine and DsRed monomer fusion (pET32a); label: CyDye5-dUTP incorporated in the synthesized complementary strand; 3' TTTTT single-stranded linker to array surface; dsDNA, one strand shown. The gist of the method:
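Polyhistidine-tagged DsRed fusions of transcription factors, joined at the N-terminus, were expressed in E. coli BL21-CodonPlus and isolated on Ni–NTA. They were incubated at 200 nM for 1 h at 25 °C on a custom Agilent array, double-stranded and BSA-blocked, in PBS with 2% BSA, salmon testes DNA and 50 µM zinc acetate. The binding signal is per-feature fluorescence intensity (arbitrary units) read on an Axon 4000B scanner after washing.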
For “CAGCTCGTCTCCGCCGTCGACTTCTGCCACTCCCGCGGCGCGGAGTCACCTAGTGCAG”, the binding signal is 8550 fluorescence intensity (a.u.).
Consider “TTGGTTTGGGATAGGTAGGTGTTATGTTAGGTCTGGTTTTCGGAGTCACCTAGTGCAG”, for which the binding signal was 12000 fluorescence intensity (a.u.).
Next, “TGTGGATCTCTCGCTCGATCAGCGACGTCGGTCGTCATCTCGGAGTCACCTAGTGCAG”: 9930 fluorescence intensity (a.u.); “ATCCGAGCATCTCGCCTCGCCCCGCCCCGCCCCGATCGATCGGAGTCACCTAGTGCAG”: 9480 fluorescence intensity (a.u.); “CTGCCTACACCGCCCCACCGCCAACTTCCGACCCCGCGGTCGGAGTCACCTAGTGCAG”: 9090 fluorescence intensity (a.u.).
Next, “ACCACCACCATTTGATCTGTTTCCTTCTCAGACACCAAAGCGGAGTCACCTAGTGCAG”: 10100 fluorescence intensity (a.u.).
For “CCGAGCTGCCCCACGGCGCCGCCCTCCAAGCTGCACTCCGCGGAGTCACCTAGTGCAG” the value was 8560 fluorescence intensity (a.u.); for “CTGTGTGTGCAGTTCGATCGAGTATAATCCGCACTTTCTCCGGAGTCACCTAGTGCAG”, 8230 fluorescence intensity (a.u.); for “CTTTGAACCTAAAATTTTTTCACTGTTTTCGATCGGTTTTCGGAGTCACCTAGTGCAG”, 8280 fluorescence intensity (a.u.).
As to “GCCCGAACCTGTATACATCGCCCGTGTCTTGTGTGTTTCCCGGAGTCACCTAGTGCAG”, the binding signal is 14700 fluorescence intensity (a.u.).
Turning to “TTTGGTTGATGGCTATAAGTTGCCACACTTTGCCATACTTCGGAGTCACCTAGTGCAG”, the binding signal is 8110 fluorescence intensity (a.u.).
In the case of “ACTTACTCAGCCTTGTTTATACTACTTTCTCCGTTCCAAACGGAGTCACCTAGTGCAG”, the binding signal was 12500 fluorescence intensity (a.u.).
Next, “GTAATGGCCGCAGTATCGTTTTTTCGCATCACTGTCCTCTCGGAGTCACCTAGTGCAG”: 10400 fluorescence intensity (a.u.); “AGAATTTGCACTACTGTACACCGCTTATCTTATCCTTGTACGGAGTCACCTAGTGCAG”: 9630 fluorescence intensity (a.u.); “CAGGCGGCGAGCCGGGATGGCGGTGGCGGGGCCATCTTCTCGGAGTCACCTAGTGCAG”: 8860 fluorescence intensity (a.u.).
“ATTCGTGCTCAGTTGTTTCTTTTCCAACTCCGGCGTCCTCCGGAGTCACCTAGTGCAG”: the binding signal was 8150 fluorescence intensity (a.u.).
Regarding “GATGGGATTATCATGTGTTCATTATCCAAAAATATTTGACCGGAGTCACCTAGTGCAG”, the binding signal is 8310 fluorescence intensity (a.u.).
Next, “TGTTCTTGAGTTGCTTATATATGGCCTTCTAGCTCAGCTCCGGAGTCACCTAGTGCAG”: 8540 fluorescence intensity (a.u.).
Next, “AGTTGAGCTGTCTGTGTTCATCAGCCCATCACTCTCTTCTCGGAGTCACCTAGTGCAG”: 11000 fluorescence intensity (a.u.); “AACATGCATCATGTCCCTCATCCTGTTCGTTGACTTCAACCGGAGTCACCTAGTGCAG”: 9740 fluorescence intensity (a.u.).
For “GGCGCTGGCAAGATGGAGGCGGAGGGTGGAGGGCGGAGGACGGAGTCACCTAGTGCAG”, the binding signal was 13100 fluorescence intensity (a.u.).
In the case of “ATTGTTTCCGCCTTCAGAACATTTCTCTGAACTCGTCCTCCGGAGTCACCTAGTGCAG”, the binding signal is 9120 fluorescence intensity (a.u.).
Next, “TTTATACCTATTCTGTTATACGTTCTTGCTGTACATTTTTCGGAGTCACCTAGTGCAG”: 9620 fluorescence intensity (a.u.); “AACGCATTCTCCAATTATATATATGCTCCTGGATTTTACACGGAGTCACCTAGTGCAG”: 8890 fluorescence intensity (a.u.).
Next, “ACGCACAGACATGTTTTTTCCAGCATCCGTTTGGCTCGTTCGGAGTCACCTAGTGCAG”: 11000 fluorescence intensity (a.u.); “GAGCTCACACCTCGATCCTCGTCCTCTTCTTCGATTCCTCCGGAGTCACCTAGTGCAG”: 8340 fluorescence intensity (a.u.).
For “AAACCTAGTAGCTCATATGCTCATCTCTGCCTCTAGATTTCGGAGTCACCTAGTGCAG” the value was 10700 fluorescence intensity (a.u.).
On to “ACTTGTGGGGTTGTTTTGGTCACAGTATTACTTAAATAAACGGAGTCACCTAGTGCAG”, for which the binding signal was 8670 fluorescence intensity (a.u.).
As for “ATATAAACTTGTTCATTCTTGTAGCCCGTCCTTGTTCTCCCGGAGTCACCTAGTGCAG”, the binding signal is 9570 fluorescence intensity (a.u.).
For “AGGTTTTTTTTCATCAAAGTGAACCGGCCCTATATTATCCCGGAGTCACCTAGTGCAG” the value was 8520 fluorescence intensity (a.u.).
For “CTCTCCACTACTTCGTCTCCACCACCAGAGCATCTAATTTCGGAGTCACCTAGTGCAG” the value was 11300 fluorescence intensity (a.u.); for “GATGAAGCTATTAATAGCTTTTAGCTTGTTGTGTGCTGTTCGGAGTCACCTAGTGCAG”, 8580 fluorescence intensity (a.u.); for “CCCCTTTGTGCTCACATGTGCATTGCATATATGCAGCCTTCGGAGTCACCTAGTGCAG”, 8600 fluorescence intensity (a.u.).
For “TAATTTTTGACCACTCGTCTTATTTAAATTTTTTTACAAACGGAGTCACCTAGTGCAG”, the binding signal was 8080 fluorescence intensity (a.u.).
For the sequence “CCACATGCACCGGCTCTGACAAATTGCAAAAGCATCCTCTCGGAGTCACCTAGTGCAG”, the binding signal is 10100 fluorescence intensity (a.u.).
For “CGGCGGAATTCATTTTCTTGTGGTCCTTTTGCTGATCTTCCGGAGTCACCTAGTGCAG”, the binding signal was 8540 fluorescence intensity (a.u.).
“GAGCAGAATTAACCTTTTTCTTTTTGTTTTTGTTTGCCTTCGGAGTCACCTAGTGCAG”: the binding signal is 9620 fluorescence intensity (a.u.).
For “TAAATGTGCTTTAGGTATTCCATGTCAAATCCCGTGTTTTCGGAGTCACCTAGTGCAG” the value was 8390 fluorescence intensity (a.u.).
Next, “CTTTCTTTAGTTAACTCATGCTCTTTATTTTGGGTTCTGTCGGAGTCACCTAGTGCAG”: 9620 fluorescence intensity (a.u.); “TTCTGCTGATTACTCTTTTTGTACTCTTTAGTTTGTTACTCGGAGTCACCTAGTGCAG”: 10500 fluorescence intensity (a.u.).
Consider “GTAGATGTAGTAGCTAGCTTTTGTTAATTTCAACGTTCCACGGAGTCACCTAGTGCAG”, for which the binding signal is 8380 fluorescence intensity (a.u.).
Next, “ATTGCTTCTGAAAACCTGCTCCTCTTTTGCTGTGGACAATCGGAGTCACCTAGTGCAG”: 8240 fluorescence intensity (a.u.).
